# Test results as given in PubChem BioAssay AID1671190 (National Center for Advancing Translational Sciences (NCATS), 2021).
# Chains of the proteins cited; added tags and fusions are not shown. Lines headed by an entry give the natural chain unless they say otherwise; changes in a name come on top.
# UniProt P18054: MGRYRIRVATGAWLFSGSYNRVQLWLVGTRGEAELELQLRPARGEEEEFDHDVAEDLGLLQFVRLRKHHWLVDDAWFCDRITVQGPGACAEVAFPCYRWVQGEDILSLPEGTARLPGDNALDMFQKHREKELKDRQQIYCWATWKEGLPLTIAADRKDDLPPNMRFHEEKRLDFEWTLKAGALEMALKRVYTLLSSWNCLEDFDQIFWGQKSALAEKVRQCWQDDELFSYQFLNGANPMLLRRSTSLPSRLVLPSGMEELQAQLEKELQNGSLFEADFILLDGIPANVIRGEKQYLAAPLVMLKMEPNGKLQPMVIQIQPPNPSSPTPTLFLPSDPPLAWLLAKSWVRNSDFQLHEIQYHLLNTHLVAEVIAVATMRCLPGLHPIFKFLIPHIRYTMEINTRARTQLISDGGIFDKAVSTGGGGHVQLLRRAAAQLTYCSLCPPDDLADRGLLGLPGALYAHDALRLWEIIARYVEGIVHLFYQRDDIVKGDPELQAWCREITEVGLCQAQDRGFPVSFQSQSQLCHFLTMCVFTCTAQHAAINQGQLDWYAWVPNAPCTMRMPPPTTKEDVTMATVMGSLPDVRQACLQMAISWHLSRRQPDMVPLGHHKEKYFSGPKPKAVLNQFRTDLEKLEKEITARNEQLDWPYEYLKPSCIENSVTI
# “And” between values parts separate entries of the source, which are not always exact repeats. Equal entries are not always repeated. The whole screen tested about 580,000 compounds, of which about 6,100 (1.1%) were called active. This list was built around the results that the source calls inconclusive (neither active nor inactive); the mix of calls is not that of the screen. Calls follow the shape of the dose curve; as a rule, active = well fitted inhibition curve with a large enough effect; inconclusive = small, poorly fitted or top-dose-only effect, or another doubt; inactive = no such curve, though single readings can be large or run the other way. A potency beside an inconclusive call is a rough fit, not a confirmed value.
# Biological target: Polyunsaturated fatty acid lipoxygenase ALOX12 (Homo sapiens) (UniProt P18054)
# Assay: Primary qHTS assay for inhibitors of human arachidonate 12S-lipoxygenase (ALOX12): Round 2
# Details: purified 12hLO, xylenol orange hydroperoxide absorbance; activity change, negative = inhibition: at 108 µM (top of the series) unless noted
# How it was run: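 Hydroperoxide product was detected by ferrous iron/xylenol orange as the 573 to 405 nm absorbance ratio. Arachidonic acid at 40 uM (final) was turned over for 30 min at room temperature by 150 nM human 12hLO, pH 7.0 Hepes buffer, after 15 min compound preincubation.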
# % is scaled to controls: 0 for no effect and ±100 for the full control effect; potency is read from the fitted curve at half-maximal effect.
Compound,"activity change, negative = inhibition",Potency
CC(C)N(Cc1ccccc1)C(=O)CN1C(=O)COc2ccc(S(=O)(=O)NC3CCCC3)cc21,inconclusive: -32.5% [inhibitor],
O=[N+]([O-])c1c(NCCO)cc(N2CCCCC2)c2nonc12,,"inconclusive: 44.7 µM [inhibitor, partial curve, poor fit]"
CCN(CC)S(=O)(=O)c1cc(C(=O)Nc2cc(S(=O)(=O)N3CCOCC3)ccc2N2CCN(C)CC2)ccc1C,,"inconclusive: 35.5 µM [inhibitor, partial curve, poor fit]"
CNC(=O)COc1ccc(S(=O)(=O)N2CCCC2)cc1,inactive: -11.6%,
Cc1cc(C)c(NC(=O)CNC(=O)Cc2ccc(S(=O)(=O)N3CCOCC3)s2)c(C)c1,,"inconclusive: 79.4 µM [inhibitor, partial curve, poor fit]"
Cc1cc(=O)n(CC(=O)Nc2ccccc2F)c(N2CCc3ccccc3C2)n1,,"inconclusive: 44.7 µM [inhibitor, partial curve]"
O=C(CSc1ncnc2ccccc12)Nc1cccc(S(=O)(=O)N2CCCC2)c1,,"inconclusive: 112 µM [inhibitor, partial curve, poor fit]"
Cc1ccccc1CN(C)C(C(=O)NC1CC1)c1ccc(F)cc1 (stereo not given),inactive: 24.1%,
COc1cc(CNc2ccc3[nH]c(=O)[nH]c3c2)ccc1OCc1ccccc1F,,"inactive and inconclusive: 112 µM [inhibitor, single point]"
Cc1nc2ccccc2nc1CN1C(=O)C(=O)N(C2CCCC2)C1=O,inactive: 20.4%,
O=C(NC(=S)Nc1cccc(CO)c1)c1ccc(-c2ccccc2)cc1,,"inconclusive: 17.8 µM [inhibitor, full curve, poor fit]"
O=C(Nc1ccccc1)C1CC(=O)N(c2n[nH]c3cc(Br)ccc23)C1 (stereo not given),,"inconclusive: 7.08 µM [inhibitor, full curve, poor fit]"
CC1CCCN(C(=O)c2ccc3c(=O)n(C4CCCC4)c(=S)[nH]c3c2)C1 (stereo not given),inactive: -29%,
O=S(=O)(Nc1nc2ccccc2nc1Nc1ccc(C(F)(F)F)cc1)c1ccccc1,inactive: -2.47%,
Cc1cc(NC(=O)c2ccccc2Cl)no1,inactive: 435%,
CCCC[C@@H]1CNC(=S)N1CC1CCCCC1,,active: 50.1 µM
Cc1nc(-c2ccccc2)n(Cc2cccc(C(F)(F)F)c2)c(=O)c1CCO,inactive: 22.2%,
COc1ccc(S(=O)(=O)N2CCC(N3CCN(Cc4ccccc4)CC3)CC2)cc1,,"inconclusive: 20 µM [inhibitor, full curve]"

Compound,"activity change, negative = inhibition",Potency
CN(C)c1ccc(C(CNS(=O)(=O)c2ccc(Br)cc2)N2CCCC2)cc1 (stereo not given),,"inconclusive: 50.1 µM [inhibitor, partial curve]"
COc1ccc(OCc2n[nH]c(=S)n2N)cc1,,active: 15.8 µM
CC(C)c1ccc(C(=O)Cn2cnc3c2c(=O)n(C)c(=O)n3C)cc1,inactive: 1.53%,
CCN(CC)S(=O)(=O)c1ccc(NC(=O)CCc2c(C)nc3cc(-c4ccc(Cl)cc4)nn3c2C)cc1,inactive: -23.9%,
O=C(O)c1ccc(N=c2oc3cc(O)ccc3cc2C(=O)NCc2ccccc2)cc1,inactive: -25.9%,
O=C(N/N=C/c1ccccc1O)C1SCCCS1,inactive: 5.57%,
Cc1ccc(OCC(=O)N/N=C/C=C/c2ccco2)cc1,,"inconclusive: 1.78 µM [inhibitor, full curve, poor fit]"
CCNc1cc(C)nc(Nc2ccc(NC(=O)c3cccc(Cl)c3)cc2)n1,,"inconclusive: 89.1 µM [inhibitor, partial curve, poor fit]"
COC(=O)c1ccc(/C=C/C(=O)C23CC4CC(CC(C4)C2)C3)cc1,inactive: 8.06%,
O=C(Cn1ccc(C(F)(F)F)n1)N=Nc1c(O)[nH]c2ccccc12,inactive: -14%,
COc1ccc(Cl)cc1NC(=O)CSc1ccc(-c2sc(C)nc2C)nn1,inactive: -18.8%,
CCOC(=O)N1CCC(N2CCN(Cc3ccc(C)o3)C(CCO)C2)CC1 (stereo not given),inactive: -22%,
COC(=O)c1ccc(Cn2cc(/C=C\[N+](=O)[O-])c3ccccc32)o1,,"inconclusive: 0.631 µM [inhibitor, full curve, poor fit]"
CN1CC(=O)N(C2CCNCC2)Cc2c(NC3CCCCCC3)ncnc21,,"inconclusive: 1.12 µM [inhibitor, full curve, poor fit]"
COc1ccc(C2NC(=O)NC(c3ccccc3)=C2c2nc3ccccc3s2)cc1 (stereo not given),inactive: 17.5%,
Fc1ccc(-c2nc(COc3ccc(Br)cc3)co2)cc1,inactive: -9.91%,
Nc1ccc2cc3ccccc3cc2c1,inactive: -23.7%,

# Arranged by length of the SMILES (smallest number first): 3 of the compounds above.
Compound,"activity change, negative = inhibition",Potency
Cc1ccc(OCC(=O)N/N=C/C=C/c2ccco2)cc1,,"inconclusive: 1.78 µM [inhibitor, full curve, poor fit]"
CC(C)c1ccc(C(=O)Cn2cnc3c2c(=O)n(C)c(=O)n3C)cc1,inactive: 1.53%,
CCN(CC)S(=O)(=O)c1ccc(NC(=O)CCc2c(C)nc3cc(-c4ccc(Cl)cc4)nn3c2C)cc1,inactive: -23.9%,
